These are yes or no findings as the source states them, for the method shown.
Assays:
SERPINA3 = test: on-cell Kd, antibody titration on cells expressing SERPINA3, flow cytometry
PLPP3 = test: on-cell Kd, antibody titration on cells expressing PLPP3, flow cytometry
SLC6A9 = test: on-cell Kd, antibody titration on cells expressing SLC6A9, flow cytometry

Binder	binding (SERPINA3)	binding (PLPP3)	binding (SLC6A9)
anti-CCR8-1 (antibody, human IgG1, V domains shown) VH: QVQLVQSGAEVKKPGASVKVSCKASGYTFTSYYMHWVRQAPGQGLEWMGIINPSGGSTSYAQKFQGRVTMTRDTSTSTVYMELSSLRSEDTAVYYCARAVRNRFRFDYWGQGTLVTVSS VL: QSALTQPASVSGSPGQSITISCTGTSSDVGSYNLVSWYQQHPGKAPKLMIYEVSKRPSGVSNRFSGSKSGNTASLTISGLQAEDEADYYCSSYAGSSTFVVFGGGTKLTVL	no binding (tested: 100 nM (top of the affinity axis))	no binding (tested: 100 nM (top of the affinity axis))	no binding (tested: 100 nM (top of the affinity axis))
anti-CCR8-2 (antibody, V domains shown, Cloned into mammalian expression vectors; human IgG; also called heavy chain H23727) VH: EVQLLESGGGLVQPGGSLRLSCAAGGFTFSAYTMNWVRQAPGKGLEWVSAISASGGRTYYADSVKGRFTISRDNSKNTLYLQMNSLRAEDTAVYYCARRFARGWFDPWGQGTLVTVSS VL: QSVLTQPPSVSAAPGQKVTISCSGSSSNIGNNYVSWYQQLPGTAPKLLIYDNNKRPSGIPDRFSGSKSGTSATLGITGLQTGDEADYYCGTWDSSLSAWVFGGGTKLT	no binding (tested: 100 nM (top of the affinity axis))	no binding (tested: 100 nM (top of the affinity axis))	no binding (tested: 100 nM (top of the affinity axis))

— US20210238292A1 (VACCINEX, published 2021)
